Data taken from patent publication US8137708B2, “Herbal composition and process for its preparation” (Piramal Life Sciences Limited, priority 2006, dated 2012).

Columns and labels:
K-562 = test: 3H-Thymidine uptake cell proliferation assay; type: cell-based; conditions: Homo sapiens, K562, 72 h, read-out: Imatinib (IC50)
[1] = system: imatinib-resistant CML patient sample; test: Efficacy in CML patient cells (3H Thymidine uptake); type: cell-based; conditions: Homo sapiens

For Cc1ccc(NC(=O)c2ccc(CN3CCN(C)CC3)cc2)cc1Nc1nccc(-c2cccnc2)n1 [Imatinib, imatinib], the IC50 (K-562) was 0.3 µM and the IC50 [1] was 8 µM.
